One molecule from patent EP3736570A1, “METHOD FOR THE DIAGNOSIS, SUB-CLASSIFICATION AND PROGNOSIS OF ACUTE KIDNEY INJURY BY DETECTING CCT7” (Fundación Instituto de Estudios de Ciencias de la Salud de …, priority 2019, dated 2020) can be followed below.

The series relates to MCT cells. Nature of the series: Western blot / 2D proteomic analysis of culture medium and cell extracts. To be noted: cisplatin 0-30 µM. On the technique in general: A western blot detects proteins with antibodies after separation by electrophoresis.

For `N.N.[Cl][Pt][Cl]` [cisplatin], the “TCP1-eta inside the cells” value (MCT cell extracts) is “did not accumulate inside the cells”. Also, under “MCT cells, 9 and 18 h”, the “t-gelsolin in the culture medium” value is “not detected in the culture medium”.
